The series can be described thus: peptide made by a vendor (peptide synthesis; Rink amide resin). The following applies: whole synthesis, RP-HPLC recording the absorbance at 214 nm, acetate.

Consider Chex-RPDKPRPYLPRPRPPRPVR-NH2, for which the “final HPLC purity” value came out at 97.3%.

Values taken from publication PMC8864165 (Frontiers in Chemistry, 2022).
